Paper PMC10502019
These are yes or no findings as the source states them, for the method shown. In cells and extracts the contact can be indirect. Here binding means that the protein was enriched with, or labelled near, the bait; the list need not be complete. Values belong to the binder of their own block, whether it stands above or below them.

Chains of the proteins cited; added tags and fusions are not shown.
UniProt Q9ET78: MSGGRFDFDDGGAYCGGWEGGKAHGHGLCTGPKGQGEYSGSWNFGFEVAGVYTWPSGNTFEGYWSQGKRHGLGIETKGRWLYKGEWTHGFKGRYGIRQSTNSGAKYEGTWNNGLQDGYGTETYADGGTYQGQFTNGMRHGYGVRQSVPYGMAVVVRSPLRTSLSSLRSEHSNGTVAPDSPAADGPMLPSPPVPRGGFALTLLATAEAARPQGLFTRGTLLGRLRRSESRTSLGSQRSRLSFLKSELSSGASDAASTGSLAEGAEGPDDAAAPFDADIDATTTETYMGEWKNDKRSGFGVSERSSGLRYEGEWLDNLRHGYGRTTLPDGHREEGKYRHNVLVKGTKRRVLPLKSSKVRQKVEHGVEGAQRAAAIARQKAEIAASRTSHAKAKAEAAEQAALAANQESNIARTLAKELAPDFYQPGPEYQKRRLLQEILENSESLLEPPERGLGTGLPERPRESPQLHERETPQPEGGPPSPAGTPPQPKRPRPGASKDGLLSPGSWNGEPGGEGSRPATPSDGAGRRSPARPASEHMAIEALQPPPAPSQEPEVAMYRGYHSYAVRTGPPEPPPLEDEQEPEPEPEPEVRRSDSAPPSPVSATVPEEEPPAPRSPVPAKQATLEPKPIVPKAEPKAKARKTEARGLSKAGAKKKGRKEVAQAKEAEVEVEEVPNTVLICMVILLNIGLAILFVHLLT
UniProt Q62407: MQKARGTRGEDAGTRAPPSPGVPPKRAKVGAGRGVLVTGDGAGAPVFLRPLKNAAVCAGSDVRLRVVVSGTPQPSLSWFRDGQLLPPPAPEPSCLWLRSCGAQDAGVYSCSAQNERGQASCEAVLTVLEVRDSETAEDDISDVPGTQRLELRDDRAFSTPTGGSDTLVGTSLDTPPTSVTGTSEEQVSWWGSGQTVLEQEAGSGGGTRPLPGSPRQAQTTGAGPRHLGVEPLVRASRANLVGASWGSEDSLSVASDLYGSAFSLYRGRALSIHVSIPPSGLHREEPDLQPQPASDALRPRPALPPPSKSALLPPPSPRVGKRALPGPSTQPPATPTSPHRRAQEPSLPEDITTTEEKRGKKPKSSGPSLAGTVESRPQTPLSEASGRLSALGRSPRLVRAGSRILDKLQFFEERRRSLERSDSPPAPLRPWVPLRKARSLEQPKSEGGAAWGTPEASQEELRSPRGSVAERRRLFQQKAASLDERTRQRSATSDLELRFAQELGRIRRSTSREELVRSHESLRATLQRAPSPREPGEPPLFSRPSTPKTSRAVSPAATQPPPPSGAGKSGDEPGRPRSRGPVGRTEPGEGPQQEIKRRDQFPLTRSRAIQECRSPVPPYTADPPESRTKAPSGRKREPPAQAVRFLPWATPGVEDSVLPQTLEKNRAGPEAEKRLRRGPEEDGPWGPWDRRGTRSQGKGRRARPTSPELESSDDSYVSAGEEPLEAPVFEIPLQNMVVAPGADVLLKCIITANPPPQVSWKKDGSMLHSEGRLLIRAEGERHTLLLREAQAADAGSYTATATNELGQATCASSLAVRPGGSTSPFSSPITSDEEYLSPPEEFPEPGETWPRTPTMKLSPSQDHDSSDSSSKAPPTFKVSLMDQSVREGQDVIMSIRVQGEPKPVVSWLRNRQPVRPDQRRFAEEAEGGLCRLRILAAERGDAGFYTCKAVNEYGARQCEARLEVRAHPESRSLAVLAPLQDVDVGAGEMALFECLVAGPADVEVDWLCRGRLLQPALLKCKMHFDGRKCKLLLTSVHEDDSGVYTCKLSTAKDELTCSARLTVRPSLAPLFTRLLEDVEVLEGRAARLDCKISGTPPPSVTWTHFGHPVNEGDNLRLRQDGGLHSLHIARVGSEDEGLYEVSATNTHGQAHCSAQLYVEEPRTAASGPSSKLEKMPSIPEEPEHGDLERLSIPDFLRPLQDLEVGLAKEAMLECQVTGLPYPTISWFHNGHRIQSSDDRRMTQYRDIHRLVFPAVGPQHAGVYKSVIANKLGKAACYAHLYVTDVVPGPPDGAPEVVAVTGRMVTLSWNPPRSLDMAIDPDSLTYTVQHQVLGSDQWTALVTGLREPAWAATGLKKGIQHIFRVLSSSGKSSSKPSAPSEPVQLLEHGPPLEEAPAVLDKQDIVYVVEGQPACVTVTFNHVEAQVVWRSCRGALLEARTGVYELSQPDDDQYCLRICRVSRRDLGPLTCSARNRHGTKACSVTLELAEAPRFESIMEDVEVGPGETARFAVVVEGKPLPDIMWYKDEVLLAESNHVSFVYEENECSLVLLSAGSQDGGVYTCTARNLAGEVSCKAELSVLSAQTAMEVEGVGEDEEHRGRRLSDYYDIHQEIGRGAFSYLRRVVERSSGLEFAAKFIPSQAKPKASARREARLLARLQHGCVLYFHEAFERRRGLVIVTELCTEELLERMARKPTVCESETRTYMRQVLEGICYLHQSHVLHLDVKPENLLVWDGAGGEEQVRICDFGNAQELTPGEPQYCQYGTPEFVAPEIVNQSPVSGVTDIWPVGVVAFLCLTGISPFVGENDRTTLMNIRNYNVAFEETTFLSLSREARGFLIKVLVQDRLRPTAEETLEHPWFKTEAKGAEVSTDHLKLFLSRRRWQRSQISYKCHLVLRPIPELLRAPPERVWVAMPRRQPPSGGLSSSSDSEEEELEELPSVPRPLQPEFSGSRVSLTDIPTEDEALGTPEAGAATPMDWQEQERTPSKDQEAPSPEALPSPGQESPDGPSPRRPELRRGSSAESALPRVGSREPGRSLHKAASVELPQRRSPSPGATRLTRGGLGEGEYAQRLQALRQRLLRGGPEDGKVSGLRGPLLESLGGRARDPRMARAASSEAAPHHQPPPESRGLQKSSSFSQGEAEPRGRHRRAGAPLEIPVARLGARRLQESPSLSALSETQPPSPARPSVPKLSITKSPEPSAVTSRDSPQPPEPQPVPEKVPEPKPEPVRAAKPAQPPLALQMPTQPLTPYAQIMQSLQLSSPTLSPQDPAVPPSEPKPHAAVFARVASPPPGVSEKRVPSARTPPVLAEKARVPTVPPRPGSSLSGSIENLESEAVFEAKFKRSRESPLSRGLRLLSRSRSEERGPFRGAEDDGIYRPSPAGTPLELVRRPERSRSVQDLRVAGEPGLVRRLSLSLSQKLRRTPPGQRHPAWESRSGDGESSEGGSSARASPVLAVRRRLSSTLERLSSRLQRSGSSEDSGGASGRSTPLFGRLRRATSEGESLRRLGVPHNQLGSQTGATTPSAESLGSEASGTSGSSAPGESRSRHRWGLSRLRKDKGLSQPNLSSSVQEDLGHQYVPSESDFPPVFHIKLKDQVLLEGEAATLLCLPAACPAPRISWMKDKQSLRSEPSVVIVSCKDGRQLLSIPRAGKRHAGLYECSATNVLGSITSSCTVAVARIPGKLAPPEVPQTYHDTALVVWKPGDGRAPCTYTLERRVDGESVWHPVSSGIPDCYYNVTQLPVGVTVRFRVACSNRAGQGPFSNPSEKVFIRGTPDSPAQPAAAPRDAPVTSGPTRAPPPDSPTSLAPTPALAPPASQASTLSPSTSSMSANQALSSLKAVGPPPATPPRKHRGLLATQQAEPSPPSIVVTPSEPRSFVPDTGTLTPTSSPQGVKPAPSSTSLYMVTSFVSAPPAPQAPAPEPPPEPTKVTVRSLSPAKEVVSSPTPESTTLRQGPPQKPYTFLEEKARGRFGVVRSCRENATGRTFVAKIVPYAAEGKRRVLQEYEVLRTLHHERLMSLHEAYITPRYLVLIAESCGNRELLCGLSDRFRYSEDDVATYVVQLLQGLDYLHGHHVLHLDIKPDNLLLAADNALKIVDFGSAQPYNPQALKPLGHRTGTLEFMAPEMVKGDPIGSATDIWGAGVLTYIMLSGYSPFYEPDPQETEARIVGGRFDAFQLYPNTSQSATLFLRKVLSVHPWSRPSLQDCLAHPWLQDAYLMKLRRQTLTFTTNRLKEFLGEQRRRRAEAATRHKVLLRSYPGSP

Columns and labels:
[1] = target: Jph2 (junctophilin 2) (mouse (endogenous in mouse muscle and heart)) (UniProt Q9ET78); assay: affinity purification with mass spectrometry; Jph2 antibody IP from hearts of control mice; specific: P < 0.01 and 100x over IgG
[2] = target: HA-Spegβ (V5/HA-tagged striated muscle preferentially expressed protein kinase β) (mouse (endogenous knock-in in HA-Speg mice)) (UniProt Q62407); assay: affinity purification with mass spectrometry; HA antibody IP from hearts of HA-Speg mice
[3] = target: T1, Fsd2 (Fibronectin Type III and SPRY Domain Containing 2) (mouse (endogenous in mouse muscle and heart)) (UniProt Q8BZ52); assay: affinity purification with mass spectrometry; Fsd2 antibody IP from skeletal muscle of control mice; specific: 20x over IgG and P < 0.01
T1 sequence: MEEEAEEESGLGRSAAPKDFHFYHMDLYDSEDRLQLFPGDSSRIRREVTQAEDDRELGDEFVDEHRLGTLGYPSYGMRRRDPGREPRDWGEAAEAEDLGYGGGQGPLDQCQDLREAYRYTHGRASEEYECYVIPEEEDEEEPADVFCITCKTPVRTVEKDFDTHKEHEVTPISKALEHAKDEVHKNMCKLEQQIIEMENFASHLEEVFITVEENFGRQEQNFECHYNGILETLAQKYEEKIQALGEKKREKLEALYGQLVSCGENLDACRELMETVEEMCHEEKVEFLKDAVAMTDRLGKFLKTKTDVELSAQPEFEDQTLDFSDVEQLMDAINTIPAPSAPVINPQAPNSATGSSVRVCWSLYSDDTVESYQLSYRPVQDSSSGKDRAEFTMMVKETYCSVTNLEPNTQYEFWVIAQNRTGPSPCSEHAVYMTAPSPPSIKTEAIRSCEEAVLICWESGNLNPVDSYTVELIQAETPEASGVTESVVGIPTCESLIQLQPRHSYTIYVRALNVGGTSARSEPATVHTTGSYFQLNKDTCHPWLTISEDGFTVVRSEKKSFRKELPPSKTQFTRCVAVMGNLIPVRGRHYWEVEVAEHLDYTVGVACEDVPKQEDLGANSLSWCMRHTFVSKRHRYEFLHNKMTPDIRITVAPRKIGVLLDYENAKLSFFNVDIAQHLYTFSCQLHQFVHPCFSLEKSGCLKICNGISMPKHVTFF

[4] = target: HA-Spegβ (V5/HA-tagged striated muscle preferentially expressed protein kinase β) (mouse (endogenous knock-in in HA-Speg mice)) (UniProt Q62407); assay: affinity purification with mass spectrometry; HA antibody IP from gastrocnemius muscle of HA-Speg mice; HA antibody pulldowns from WT muscle define nonspecific; >10x purification, Holm-Sidak test and/or FDR; IP buffer 50 mM Tris-HCl pH 7.4, 170 mM NaCl, 1 mM EDTA, 1% NP-40
[5] = target: RyR1 (ryanodine receptor 1, skeletal muscle Ca2+ release channel) (mouse (endogenous in mouse skeletal muscle)) (UniProt E9PZQ0); assay: affinity purification with mass spectrometry; RyR1 antibody IP from gastrocnemius muscle of control (Speg fl/fl) mice, also of Speg-KO and HA-Speg mice; specific: 20x over IgG and P < 0.01
[6] = target: RyR2 (ryanodine receptor 2, cardiac Ca2+ release channel) (mouse (endogenous in mouse heart)) (UniProt E9Q401); assay: affinity purification with mass spectrometry; RyR2 IP from hearts of control (Speg fl/fl) mice

B1: Casq2 (calsequestrin 2) (protein, UniProt O09161 20-415)
chain: EEGLNFPTYDGKDRVVSLSEKNLKQMLKRYDLLCLYYHEPVSSDKVSQKQFQLKEIVLELVAQVLEHKNIGFVMVDSRKEAKLAKRLGFSEEGSLYVLKGDRTIEFDGEFAADVLVEFLLDLIEDPVEIVNNKLEVQAFERIEDQTKLLGFFKNEDSEYYKAFQEAAEHFQPYIKFFATFDKAVAKKLSLKMNEVGFYEPFMDEPNVIPNKPYTEEELVEFVKEHQRPTLRRLRPEDMFETWEDDLNGIHIVAFAEKSDPDGYEFLEILKQVARDNTDNPDLSILWIDPDDFPLLVAYWEKTFKIDLFKPQIGVVNVTDADSIWMEIPDDDDLPTAEELEDWIEDVLSGKINTEDDDNEDEDDDGDDNDDDDDDDDDNDNSDEDNEDSDDDDDDDE
binding [1]: binds

B4: phospholamban (protein, UniProt P61014 1-52)
chain: MEKVQYLTRSAIRRASTIEMPQQARQNLQNLFINFCLILICLLLICIIVMLL
binding [6]: binds

B5: Triadin (protein, UniProt E9Q9K5 1-693)
chain: MTEITAEGNASTTTTVIDNKNGCIPKSPGKVLKRSVTEDIVTTFSSPAAWLLVIALIITWSAVAIVMFDLVDYKNFSASSIAKIGSDPLKLVNDAVEETTDWIYGFFSLLSDIISSEGDEDDEDADEDIDKGEIEEPPLKRKEIHQEKAEKEEKPEKKIQTKASHREREKGKEKLKGEKPEKTATHKEKLEKKERPETKMMAKEDKKIKTKEKTEEKAKKEMKVGKQEKVKPTAAKAKETPKTPPKARKKDDKEMPAVHEQKDQYAFCRYMIDMFVHGDLKPGQSPVMPPPSLTPSKPALSTTALEEKEKEEKKKMEKKDTSDTKKKEKEVKKKSEETTIDGKGKEPGKPPETKQMTAKLTTQAAARKDEKKEESKKMRKPTEEQPKGKKQEKKEKHIEPAKTPKKEHPGPSEKLKKAKAEQAKEEIAAASTKKALHGKKEEKAKTVEQEVKKEKSGKSSSDLKDKEVKKEKSGKSSSDLKDKEPQLKNEEKSKPQVKKEAKLASSDKGQTRKQNITRPEQVIPHVKPEKAEHQEKGHPSIKKDKPKPSSKGAPEVPDSGKKKIEKSEKESKVPTREENLQVYNVTKAEKPGKIPKDSKEAPASKKDKEDSKEAPTSKKDKEDSKDVPHSKKDKEVTDDVSSPKKQTRPISFFQCVYLNGYNGYGFQFPVTPVQQPGENPGKTNSPGQKQQEQ
binding [1]: binds
binding [5]: binds

B6: Fsd2 (Fibronectin Type III and SPRY Domain Containing 2) (protein, UniProt Q8BZ52 1-716)
chain: T1 sequence
binding [2]: binds
binding [4]: binds

Further lines, results first:

binding [2]: binds
binding [3]: binds
binding [4]: binds
B2: Esd (Esterase D, a serine hydrolase) (enzyme, UniProt Q9R0P3 1-282)
chain: MALKQISSNRCFGGLQKVFEHSSVELKCKMRFAVYLPPQAESGKCPALYWLSGLTCTEQNFISKSGYQQAASEHGLVVIAPDTSPRGCNIKGEDDSWDFGTGAGFYVNATEDPWKANYRMYSYVTEELPQLINANFPVDPQRMSIFGHSMGGHGALICALKNPGKYRSVSAFAPICNPVLCSWGKKAFSGYLGPDESKWKAYDATCLVKAYSGSQIDILIDQGKDDEFLSNGQLLPDNFIAACTEKKIPVVFRLQEGYDHSYYFIATFIADHIRHHAKYLNA

binding [5]: binds
binding [4]: binds
B3: Jph1 (junctophilin 1) (protein, UniProt Q9ET80 1-660)
chain: MTGGRFDFDDGGTYCGGWEEGKAHGHGICTGPKGQGEYSGSWSHGFEVVGVYTWPSGNTYQGYWAQGKRHGLGVETKGKWMYRGEWSHGFKGRYGVRQSLCTPARYEGTWSNGLQDGYGVETYGDGGTYQGQWAGGMRHGYGVRQSVPYGMATVIRSPLRTSLASLRSEQSNGSVLHEAAAAAADSPAGTRGGFVLNFHADTELGKKKGGLFRRGSLLGSMKLRKSESKSSISSKRSSVRSDAAMSRISSSDANSTISFGDVDCDFCPVEDHVDATTTETYMGEWKNDKRNGFGISERSNGMKYEGEWANNKRHGYGCTVFPDGSKEEGKYKNNILVRGIRKQLIPIRNTKTREKVDRAIEGAQRAAAMARTKVEIANSRTAHARAKADAADQAALAARQECDIARAVARELSPDFYQPGPDYIKQRCQEGGDIKENPEEKVLEKPPSPKESPHFYRKGTTPPRSPESSPKQSHSPQPSSPEPSKKQNPSPGARLSQDKQSLAEEQVTAFVNKPSMSKAPAKELGASVSKYSGRHHVPNPSNGELHSQYHGYYVKLNTPQHPPEDREDDRGVSQSSSALVPRPSPNKWGPPKSVTKPVAKESKTEPKAKKSELAIPKNPASNDTCPSLEKEANSGPNSIMIVLVMLLNIGLAILFVHFLT
